# Screening data, single-dose tests

The chains behind the UniProt entries cited, without tags or fusion partners. Residues count along the entry.
UniProt A4I591, 1-473: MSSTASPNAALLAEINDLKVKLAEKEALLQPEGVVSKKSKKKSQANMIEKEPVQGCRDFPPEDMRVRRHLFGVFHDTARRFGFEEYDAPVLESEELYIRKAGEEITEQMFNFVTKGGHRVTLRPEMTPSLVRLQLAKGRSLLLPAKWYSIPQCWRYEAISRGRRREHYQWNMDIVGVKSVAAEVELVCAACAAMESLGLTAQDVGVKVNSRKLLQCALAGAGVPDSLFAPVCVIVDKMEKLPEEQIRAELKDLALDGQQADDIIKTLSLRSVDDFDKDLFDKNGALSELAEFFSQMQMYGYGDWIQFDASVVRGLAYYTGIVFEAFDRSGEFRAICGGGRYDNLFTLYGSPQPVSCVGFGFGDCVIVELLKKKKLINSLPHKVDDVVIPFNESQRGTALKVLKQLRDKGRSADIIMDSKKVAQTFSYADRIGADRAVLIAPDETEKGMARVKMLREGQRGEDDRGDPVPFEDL
UniProt I6X8D2, whole entry: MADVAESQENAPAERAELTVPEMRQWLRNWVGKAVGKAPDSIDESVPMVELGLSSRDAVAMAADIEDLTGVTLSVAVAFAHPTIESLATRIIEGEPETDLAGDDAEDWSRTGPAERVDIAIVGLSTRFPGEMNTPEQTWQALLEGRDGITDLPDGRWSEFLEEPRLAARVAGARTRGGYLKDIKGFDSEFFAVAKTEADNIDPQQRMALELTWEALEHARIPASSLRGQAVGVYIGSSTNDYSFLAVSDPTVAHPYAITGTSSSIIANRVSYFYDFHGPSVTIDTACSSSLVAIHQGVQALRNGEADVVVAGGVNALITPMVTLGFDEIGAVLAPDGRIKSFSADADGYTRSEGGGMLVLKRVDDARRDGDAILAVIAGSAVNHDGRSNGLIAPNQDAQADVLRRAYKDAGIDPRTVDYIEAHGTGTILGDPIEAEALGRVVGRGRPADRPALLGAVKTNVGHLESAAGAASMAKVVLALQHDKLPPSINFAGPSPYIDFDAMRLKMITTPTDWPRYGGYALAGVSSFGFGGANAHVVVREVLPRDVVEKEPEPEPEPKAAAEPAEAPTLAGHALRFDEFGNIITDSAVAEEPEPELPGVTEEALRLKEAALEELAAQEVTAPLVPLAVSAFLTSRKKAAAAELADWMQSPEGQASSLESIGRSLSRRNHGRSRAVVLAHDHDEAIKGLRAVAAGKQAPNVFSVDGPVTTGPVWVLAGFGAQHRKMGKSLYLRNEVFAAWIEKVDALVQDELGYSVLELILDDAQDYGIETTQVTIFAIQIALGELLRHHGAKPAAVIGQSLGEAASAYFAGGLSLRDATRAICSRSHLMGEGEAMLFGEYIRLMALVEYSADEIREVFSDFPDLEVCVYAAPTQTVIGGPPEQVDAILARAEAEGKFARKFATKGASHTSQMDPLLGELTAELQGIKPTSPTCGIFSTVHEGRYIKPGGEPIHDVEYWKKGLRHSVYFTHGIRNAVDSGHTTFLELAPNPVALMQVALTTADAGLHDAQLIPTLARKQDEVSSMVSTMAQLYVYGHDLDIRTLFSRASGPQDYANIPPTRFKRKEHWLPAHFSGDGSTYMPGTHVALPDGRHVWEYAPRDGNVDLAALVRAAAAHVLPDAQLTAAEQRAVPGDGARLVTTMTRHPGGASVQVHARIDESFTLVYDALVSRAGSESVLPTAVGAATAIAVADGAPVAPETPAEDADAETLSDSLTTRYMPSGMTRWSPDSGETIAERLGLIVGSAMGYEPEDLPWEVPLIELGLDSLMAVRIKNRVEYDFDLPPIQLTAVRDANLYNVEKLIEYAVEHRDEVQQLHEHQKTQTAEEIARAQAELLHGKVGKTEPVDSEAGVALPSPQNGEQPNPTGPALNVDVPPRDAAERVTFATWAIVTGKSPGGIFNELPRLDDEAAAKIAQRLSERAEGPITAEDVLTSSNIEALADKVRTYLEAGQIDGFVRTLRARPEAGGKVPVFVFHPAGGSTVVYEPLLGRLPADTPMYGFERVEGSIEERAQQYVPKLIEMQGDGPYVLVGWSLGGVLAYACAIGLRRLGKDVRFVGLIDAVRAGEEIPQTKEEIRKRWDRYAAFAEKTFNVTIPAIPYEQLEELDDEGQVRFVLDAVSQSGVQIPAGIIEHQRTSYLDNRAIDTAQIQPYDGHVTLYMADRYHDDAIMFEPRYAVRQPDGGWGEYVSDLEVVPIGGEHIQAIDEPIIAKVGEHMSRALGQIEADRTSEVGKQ

Measurements from “University of Dundee, Small-Polar-MMV Screening Library” (2021), ChEMBL document CHEMBL3988442.

Each number is a percent effect as filed. The controls that fix the scale are not given in the record; negative values are as filed. Compounds were drawn at random from those tested, without regard to their results. Two or more numbers in one place are separate tests of the same structure; such repeats can differ widely. A dash means the value is not listed here; it may have been measured.

LiHisRS: 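Histidine-tRNA ligase, Leishmania infantum (UniProt A4I591). Enzyme assay of histidyl-tRNA synthetase; the read-out is not stated. Tested at 30 µM. The record gives no direction; compounds that gave an IC50 in retests scored well above the rest, so higher reads as stronger inhibition. The assay is labelled LdHisRS but filed under L. infantum. About 69,000 compounds were tested under these conditions; 0.6% (about 410) showed 50% or more at least once.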
Pks13 thioesterase: 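Enzyme assay of the thioesterase domain of polyketide synthase 13; the read-out is not stated. Target: Polyketide synthase Pks13, Mycobacterium tuberculosis (UniProt I6X8D2). Tested at 30 µM. Higher reads as stronger inhibition (inferred from which compounds were picked for retests). Size under these conditions: about 67,000 compounds, about 300 of them at 50% or above in at least one test.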
Leishmania in macrophages: 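Cell assay of Leishmania donovani living inside macrophages; the read-out is not stated. Tested at 30 µM. Higher reads as stronger inhibition (inferred: compounds with an IC50 in retests scored well above the rest). Of about 69,000 compounds tested this way, about 1,000 (1.5%) reached 50% or more in at least one test.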

structure,LiHisRS,Pks13 thioesterase,Leishmania in macrophages
Cc1csc([C@H]2C[C@H]3CN(Cc4cc(C)on4)CC[C@@H]3O2)n1,9.91,-2.164,-
O=C(CN1CCCCC1)N1CCC(c2cc(=O)n3c(n2)CCCCC3)C1.O=C(O)CC(O)(CC(=O)O)C(=O)O (centres unmarked),-,-,14.05 & 22.66
O=C(O)C(F)(F)F.[H][C@@]12C[C@H](c3nc(C)no3)CN(C3CCC3)[C@]1([H])CCO2,-,-,22.72
O=C(CCOc1ccccc1)N1CCCC(n2cncn2)C1 (centres unmarked),6.481,-21.09,13.56
N#CC(NC(=O)CC(F)(F)F)c1ccsc1 (centres unmarked),9.735,-18.12,27.43
CC(C)NC(=O)Cc1cnc(-n2cccc2)s1,20,3.034,42.61
CC(C)(C)C(=O)Cn1nc(C2CC2)cc(C(F)(F)F)c1=O,5.983,1.806,12.64
Cl.O=C1CC2(CCCNC2)C(=O)N1Cc1cccc(Cl)c1 (centres unmarked),-,-,21.99
Cc1occc1CN(C)C(=O)Nc1ccc(=O)n(C)c1,102.1,-0.5924,21.5
Cc1cc(C)n(CC(C)CNC(=O)NCc2c(C)cc(C)[nH]c2=O)n1 (centres unmarked),20.72,-0.9446,12.34
Cc1noc(C)c1CN1CCN(Cc2ccncc2)c2ncccc2C1.O=C(O)C(F)(F)F.O=C(O)C(F)(F)F.O=C(O)C(F)(F)F,-,-,-14.87
CCCc1nnsc1C(=O)NCC1CCN(C(=O)c2ccncc2)CC1,-1.653,-1.807,3.418
CCc1nccc(CN2CCC(CNC(=O)[C@H]3CC[C@H](C)CC3)C2)n1 (some centres unmarked),23.2,-18.08,-36.65
CCn1c(CN(C)Cc2cnc(C)s2)nc2cc(F)ccc21,-2.632,-34.01,24.9
O=C(CCCNC(=O)c1cnccn1)Nc1ncc[nH]1,5.263,-22.61,0.8463
Cc1nccc(N2CCC(=O)N(Cc3ccc(F)cc3)C(C(C)C)C2)n1 (centres unmarked),12.5,-14.09,8.738
[H][C@@]12CCN(c3cnccn3)C[C@@]1(C(=O)O)CCCN2Cc1ccncc1,-,-,11.87
COc1ccc(C)cc1CC(=O)N1CCN(CC(C)O)CC1 (centres unmarked),18.75,7.431,19.3
COc1cc(Br)cc(CNC2CCCNC2=O)c1O (centres unmarked),8.571,-27.23,-7.393
O=C1CC[C@H]2[C@H](CCN2c2ncccn2)N1c1ccccc1,18.92,3.539,-
c1cc(-c2ccc3c(c2)C2(CC3)CCN(c3nncs3)CC2)ccn1,74.19,1.686,59.16
COCC1CN(CCOc2ccc(Cl)cc2)Cc2c1cnn2C (centres unmarked),11.88,-2.294,-
CCN1CCN(C(=O)c2ccc3c(c2)CCCN3)[C@H]2CS(=O)(=O)C[C@H]21,12.82,-23.99,-
CC(=O)NC1CCN(c2cnc(C3CCNCC3)cn2)CC1.Cl,-,-,-6.221
Cc1nc(C)n(CC2CCCN2CCC(=O)NC2CCCC2)n1 (centres unmarked),8.929,1.381,-25.28
COCc1noc(CN2C[C@H](C3CC3)[C@@H](N(C)C)C2)n1,15.05,-19.14,0.8667
COCCN1CCOCC2(CCCN(Cc3ccc(C)o3)C2)C1.O=C(O)C(F)(F)F.O=C(O)C(F)(F)F (centres unmarked),-,-,31.88
O=C(CCn1ccc(=O)[nH]c1=O)N1CCC(Oc2ncccc2Cl)CC1,10.43,19.17,9.511 & 5.978
Cc1ccccc1OC1CCN(C(=O)CNC(=O)N(C)C)CC1,21.92,-12.67,-12.04
CCC(CC)c1nnc(NC(=O)N2CCC(C(N)=O)CC2)s1,14.29,-15.24,10.36
CCN(C(=O)CCOC)C(c1ccc(Cl)cc1)c1ccccn1 (centres unmarked),17.07,11.44,24.98
COCC1(Nc2nc(C)nc3c2cnn3C)CCCC1,13.25,-2.769,32.37
Cc1noc(CN2Cc3ccccc3CC2c2nnc(C)o2)n1 (centres unmarked),-48,-10.62,18.92
COCCCn1ccc(NS(=O)(=O)c2cc(C)c(F)cc2F)n1,5.263,-2.712,-4.751 & 39.82
Cc1cccc(OC2CCN(C(=O)c3ccc4ncsc4c3)CC2)n1,20.78,-25.12,-1.806
CCC(CC)c1cc(CNC(=O)N2CCN(CC)CC2)on1,11.48,-29.05,1.455
FC(F)Oc1ccc(CN2CCOC3(CCOCC3)C2)cc1Cl,10.96,-8.144,3.198
O=C(NCc1cn2c(n1)CN(Cc1ccccn1)CC2)C1CCC1,25.71,10.46,-
CCOC(=O)N1CCCC2(CCCNC2)C1.Cl (centres unmarked),-,-,1.754
CCOC(=O)c1n[nH]cc1CN1CCOC(Cc2ccc(F)cc2)C1 (centres unmarked),5.882,-8.686,23.26
Cc1ccc(-n2cc(C(=O)N3CCn4c(C)nnc4C3)nn2)cc1,13.83,35.32,-13.78
COc1c(C(=O)NCC2CCCO2)nnn1Cc1ccccc1 (centres unmarked),5.172,-14.03,-25.21
COc1cccc(CNCCc2cc(F)cc3c2OCOC3)c1OC,13.58,-10.77,15.28
N#CC1(C(=O)NCc2ccc(F)cc2)CCCC1,8.85,8.355,2.929
Cc1nn(C)c(N(C)C)c1CNCc1cccc(Cn2ccnc2)c1,17.86,-33.92,34.89
CCC(CO)NC(=O)Nc1cc(F)ccc1Br (centres unmarked),16.44,-16.92,-82.41
Cc1cccc(C(=O)N2CCn3cc(CN4CCCCC4)nc3C2)n1,22,-12.16,30.69
CCc1ccc(CN2CCC3(CCCN(C(=O)c4cnccn4)C3)C2)o1.O=C(O)C(F)(F)F (centres unmarked),-,-,26.27
O=C(COCC1CC1)Nc1cc(-c2ccc(Br)s2)n[nH]1,13.13,-20.07,-2.523
CCNC(=O)COc1ccccc1N1CCCC(C)C1 (centres unmarked),-2.632,-8.373,26.83
O=C(c1cc(Br)ccc1Cl)N1CCN(Cc2ccco2)CC1,10.26,-30.82,5.467
O=C(O)C(F)(F)F.[H][C@@]12CN(CC3CCOC3)C[C@]1([H])OCCN2c1cnccn1 (some centres unmarked),-,-,18.26
Cc1ccccc1CS(=O)(=O)c1nnc(C(C)NC(=O)OC(C)(C)C)o1 (centres unmarked),0,-17.05,22.79
Cc1cccc(CC2CCCN(C(=O)Cc3csc(C)n3)C2)n1 (centres unmarked),-15.79,-2.993,7.167 & 4.437
CN(Cc1cccc2cccnc12)C1CCS(=O)(=O)C1.O=C(O)CC(O)(CC(=O)O)C(=O)O (centres unmarked),-,-,21.71
Cc1noc(C)c1CNCc1c(C(C)C)nn(C)c1N1CCOCC1,18.07,-0.4762,46.05
Cc1cncc(C2CCCN(Cc3cccn3C)C2)n1 (centres unmarked),20,-0.9781,23.8
Cc1ccc(-c2nnc(CNC(=O)c3cccnc3)o2)cn1,11.27,0.6941,-14.97
CSCC(C)N(C)C(=O)c1nn(-c2ccc(F)cc2C)cc1O (centres unmarked),6.522,0.7274,-16.87
CC1CCN(c2cc(-n3cnc(C(=O)N4CCSCC4)c3)ncn2)CC1,9.917,-51.43,30.53
Cc1ccc(C(=O)N2CCSCC2)cc1NC(=O)NCC1CCC1,16,5.197,22.46
COCC1CCN(C(=O)c2cccc(S(=O)(=O)NCC3(C)COC3)c2)C1 (centres unmarked),20.75,-12.43,5.912
CN1CC(=O)N(c2ccccc2)CC12CCN(Cc1nccn1C)C2 (centres unmarked),11.5,-3.724,-
CC1CCCCN1C(=O)c1coc(COc2cccc3cnccc23)n1 (centres unmarked),14.47,-41.02,4.048
c1ccc(OC[C@]23COC[C@H]2CN(c2ncccn2)C3)nc1,18.87,-7.13,-
CC(CC#N)N1CCN(C(=O)OC(C)(C)C)CC1 (centres unmarked),4.762,-,-10.45
COCC(=O)N1CCOC(c2cccc(-c3cncnc3)n2)C1 (centres unmarked),14.43,11.46,20.9 & 20.05
Cc1cc(C)c(CNC(=O)CC2CCCO2)c(=O)[nH]1 (centres unmarked),20.18,-4.723,17.01

7 of the entries, repeated:

structure,LiHisRS,Pks13 thioesterase,Leishmania in macrophages
CCN1CCN(C(=O)c2ccc3c(c2)CCCN3)[C@H]2CS(=O)(=O)C[C@H]21,12.82,-23.99,-
CC(C)(C)C(=O)Cn1nc(C2CC2)cc(C(F)(F)F)c1=O,5.983,1.806,12.64
Cc1occc1CN(C)C(=O)Nc1ccc(=O)n(C)c1,102.1,-0.5924,21.5
CC(C)NC(=O)Cc1cnc(-n2cccc2)s1,20,3.034,42.61
CN1CC(=O)N(c2ccccc2)CC12CCN(Cc1nccn1C)C2 (centres unmarked),11.5,-3.724,-
COc1cc(Br)cc(CNC2CCCNC2=O)c1O (centres unmarked),8.571,-27.23,-7.393
COCc1noc(CN2C[C@H](C3CC3)[C@@H](N(C)C)C2)n1,15.05,-19.14,0.8667